The list shows only some results of the screen, not a fair sample: it gathers tests that were run many times, whatever their T/C, doses with no T/C, and many T/C values between a quarter and a half above the control. Other doses and runs of a compound stand elsewhere. T/C is the treated group as % of the vehicle group. Some doses have a count of surviving animals in place of a T/C: the source files T/C as zero there, which appears to mark a toxic dose or a test without result, not a measured value. Some survivor counts are full or nearly so, which does not show that the dose was tolerated: the source hardly ever lists a survival T/C far under the control, and the zero likely stands for such cases as well. Survivors were counted at the toxicity check, usually on the fifth day, unless a day is given; later deaths do not show. Schedule codes are those of the source, read here as Q, the interval in days (D) or hours (H), X, the number of doses. Some entries were tested several times; their values stand side by side, smallest first. For survival time, this PubChem deposit counts one and a half times the control or more as active, and values a quarter to a half above the control carry no call in these data; other NCI protocols may use other cut-offs. Some T/C values carry the count of animals alive at the toxicity check (mostly the fifth day); where none is given, no animal had died by that day.
Test system: P388 leukemia ip, CD2F1 mice, survival T/C
Experiment: NCI In Vivo Anticancer Drug Screen. Data for tumor model P388 Leukemia (intraperitoneal) in CD2F1 (CDF1) mice
Conditions: T/C endpoint: median survival time, higher T/C = longer survival
[1] = dose: 200.0 mg/kg/injection, schedule: Q01DX009 (ip), vehicle: saline with Tween-80
[2] = dose: 240.0 mg/kg/injection, schedule: Q01DX005 (ip), vehicle: saline
[3] = dose: 2.0 mg/kg/injection, schedule: Q01DX009 (ip), vehicle: Klucel (hydroxypropylcellulose) (HPC)
[4] = dose: 100.0 mg/kg/injection, schedule: Q01DX009 (ip), vehicle: saline with Tween-80

Which results are given for `COc1cc2cc(c1Cl)N(C)C(=O)CC(OC(=O)C(C)N(C)C(=O)C(C)C)C1(C)OC1C(C)C1CC(O)(NC(=O)O1)C(OC)/C=C/C=C(C)C2OC` (centres undefined)?
survivor count (dose: 0.12 mg/kg/injection, schedule: Q01DX009 (ip), vehicle: none): 1 of 4; survivor count (dose: 0.25 mg/kg/injection, schedule: Q01DX009 (ip), vehicle: none): 0 of 4; survivor count (dose: 0.5 mg/kg/injection, schedule: Q01DX009 (ip), vehicle: none): 0 of 4; survivor count (dose: 1.0 mg/kg/injection, schedule: Q01DX009 (ip), vehicle: none): 0 of 4; T/C (dose: 1.0 micrograms/kg/injection, schedule: Q01DX009 (ip), vehicle: Klucel (hydroxypropylcellulose) (HPC)): 148 % of control; T/C (dose: 2.0 micrograms/kg/injection, schedule: Q01DX009 (ip), vehicle: Klucel (hydroxypropylcellulose) (HPC)): 126 % of control; T/C (dose: 7.75 micrograms/kg/injection, schedule: Q01DX009 (ip), vehicle: none): 141 % of control; T/C (dose: 8.0 micrograms/kg/injection, schedule: Q01DX009 (ip), vehicle: Klucel (hydroxypropylcellulose) (HPC)): 140 % of control; T/C (dose: 16.0 micrograms/kg/injection, schedule: Q01DX009 (ip), vehicle: Klucel (hydroxypropylcellulose) (HPC)): 144 % of control; T/C (dose: 32.0 micrograms/kg/injection, schedule: Q01DX009 (ip), vehicle: Klucel (hydroxypropylcellulose) (HPC)): 128 % of control; T/C (dose: 32.0 micrograms/kg/injection, schedule: Q01DX009 (ip), vehicle: distilled water + alcohol): 131 % of control; survivor count (dose: 62.0 micrograms/kg/injection, schedule: Q01DX009 (ip), vehicle: none): 2 of 4

`N#CN1C2C=CC(c3ccccc3)NC21` (centres undefined) was tested. Which survivor count [1] did it give?
Its survivor count is 0 of 6.

Which results are given for `CC1(C)CC([N+](C)(C)CCCCCC[N+](C)(C)C2CC(C)(C)N(O)C(C)(C)C2)CC(C)(C)N1O`?
survivor count (dose: 100.0 mg/kg/injection, schedule: Q04DX003 (ip), vehicle: saline): 1 of 6 and 4 of 6; survivor count (dose: 200.0 mg/kg/injection, schedule: Q04DX003 (ip), vehicle: saline): 0 of 6

How did the survivor count (dose: 100.0 mg/kg/injection, schedule: Q01DX005 (ip), vehicle: Klucel + Tween-80) turn out when `CCCCCCCCCCCCCCCCCC(N)=S` was run?
The survivor count was 5 of 6.

What does the source list for `CN1CCN2c3ccccc3Cc3ccccc3C2C1` (centres undefined)?
survivor count (dose: 100.0 mg/kg/injection, schedule: Q01DX009 (ip), vehicle: saline): 2 of 6 and 3 of 6; survivor count (dose: 200.0 mg/kg/injection, schedule: Q01DX009 (ip), vehicle: saline): 0 of 6

With `Cc1oc2ccccc2c(=O)c1CN1CCOCC1` as the molecule, how does the survivor count [2] read?
The survivor count was 0 of 6.

`CC1CC2OC(/C=C/C=C/C=C/C=C\C=C\C(O)=C3/C(=O)C(C(C)C)N(C)C3=O)C(O)C2O1` (centres undefined) was tested. Which survivor count (dose: 5.0 mg/kg/injection, schedule: Q01DX005 (ip), vehicle: saline with Tween-80) did it give?
Its survivor count is 5 of 6.

And the survivor count (dose: 10.0 mg/kg/injection, schedule: Q01DX005 (ip), vehicle: saline with Tween-80)?
Its survivor count is 6 of 6.

And the survivor count (dose: 20.0 mg/kg/injection, schedule: Q01DX005 (ip), vehicle: saline with Tween-80)?
Its survivor count is 5 of 6.

What about the survivor count (dose: 40.0 mg/kg/injection, schedule: Q01DX005 (ip), vehicle: saline with Tween-80) of the same molecule?
Its survivor count is 1 of 6.

With `CCN(CC)CC(C)(C)C(=O)/C=C/c1ccc(Cl)cc1` as the molecule, how does the survivor count [2] read?
Its survivor count is 0 of 6.

What does the source list for `O=[N+]([O-])c1cccc2nc(Cl)ccc12`?
survivor count (dose: 200.0 mg/kg/injection, schedule: Q01DX009 (ip), vehicle: other): 3 of 6; survivor count (dose: 400.0 mg/kg/injection, schedule: Q01DX009 (ip), vehicle: other): 0 of 6

How did the survivor count (dose: 200.0 mg/kg/injection, schedule: Q01DX005 (ip), vehicle: saline with Tween-80) turn out when `CCOc1cc(/C=N/NC(=O)N(c2ccccc2)c2ccccc2)ccc1O` was run?
The survivor count was 6 of 6.

Which survivor count (dose: 120.0 mg/kg/injection, schedule: Q01DX005 (ip), vehicle: saline with Tween-80) does the source give for `O=C(O)C(c1ccccc1)N1C(=O)C(Cl)=C(Cl)C1=O` (centres undefined) here?
Its survivor count is 1 of 6.

What about the survivor count (dose: 240.0 mg/kg/injection, schedule: Q01DX005 (ip), vehicle: saline with Tween-80) of the same molecule?
The survivor count was 0 of 6.

For `CCOC(=O)CN1CCC2CC1c1c([nH]c3ccccc13)C2c1cc2c(cc1OC)N(C)C1C(O)(C(=O)OC)C(OC(C)=O)C3(CC)C=CCN4CCC21C43` (centres undefined), which survivor count (dose: 0.25 mg/kg/injection, schedule: Q01DX009 (ip), vehicle: Klucel (hydroxypropylcellulose) (HPC)) is on record?
The survivor count was 6 of 6.

And the survivor count (dose: 0.5 mg/kg/injection, schedule: Q01DX009 (ip), vehicle: Klucel (hydroxypropylcellulose) (HPC))?
Its survivor count is 6 of 6.

What about the survivor count [3] of the same molecule?
The survivor count was 6 of 6.

Which T/C (dose: 5.0 mg/kg/injection, schedule: Q01DX009 (ip), vehicle: Klucel (hydroxypropylcellulose) (HPC)) does the source give for `Cc1c[n+]2ccc3ccccc3c2c2ccccc12` here?
Its T/C is 133 % of control.

And the survivor count (dose: 7.5 mg/kg/injection, schedule: Q01DX009 (ip), vehicle: Klucel (hydroxypropylcellulose) (HPC))?
The survivor count was 3 of 6.

And the survivor count (dose: 10.0 mg/kg/injection, schedule: Q01DX009 (ip), vehicle: Klucel (hydroxypropylcellulose) (HPC))?
The survivor count was 0 of 6.

And the survivor count (dose: 20.0 mg/kg/injection, schedule: Q01DX009 (ip), vehicle: Klucel (hydroxypropylcellulose) (HPC))?
Its survivor count is 0 of 6.

Which survivor count [4] does the source give for `CCCCCCCCCCCC(=O)NN` here?
The survivor count was 6 of 6.

What about the survivor count [1] of the same molecule?
Its survivor count is 5 of 6.

What about the survivor count (dose: 400.0 mg/kg/injection, schedule: Q04DX003 (ip), vehicle: saline with Tween-80) of the same molecule?
The survivor count was 5 of 6.

With `CCCCCCCC(=O)[O][Hg][CH2]C1COC([CH2][Hg][O]C(=O)CCCCCCC)CO1` (centres undefined) as the molecule, how does the T/C (dose: 25.0 mg/kg/injection, schedule: Q01DX009 (ip), vehicle: saline sonified) read?
The T/C was 130 % of control.

Which survivor count (dose: 100.0 mg/kg/injection, schedule: Q01DX005 (ip), vehicle: saline) does the source give for `CCCCCC(CN(C)C)C(=O)/C=C/c1ccc(Br)cc1` (centres undefined) here?
The survivor count was 0 of 6.

What about the survivor count (dose: 200.0 mg/kg/injection, schedule: Q01DX005 (ip), vehicle: saline) of the same molecule?
Its survivor count is 0 of 6.

Which results are given for `CNCC1c2ccccc2CSc2c(OC)cccc21` (centres undefined)?
survivor count (dose: 50.0 mg/kg/injection, schedule: Q01DX005 (ip), vehicle: Klucel (hydroxypropylcellulose) (HPC)): 3 of 6; survivor count (dose: 100.0 mg/kg/injection, schedule: Q01DX005 (ip), vehicle: Klucel (hydroxypropylcellulose) (HPC)): 0 of 6; survivor count (dose: 200.0 mg/kg/injection, schedule: Q01DX005 (ip), vehicle: Klucel (hydroxypropylcellulose) (HPC)): 0 of 6

`Nc1cc2[nH]cnc2c(=O)[nH]1` was tested. Which T/C (dose: 25.0 mg/kg/injection, schedule: Q01DX009 (ip), vehicle: saline with Tween-80) did it give?
Its T/C is 131 % of control [5 of 6 alive].

What about the T/C (dose: 50.0 mg/kg/injection, schedule: Q01DX009 (ip), vehicle: saline with Tween-80) of the same molecule?
The T/C was 142 % of control.

And the T/C (dose: 100.0 mg/kg/injection, schedule: Q01DX009 (ip), vehicle: Klucel (hydroxypropylcellulose) (HPC))?
The T/C was 135 % of control.

And the T/C [4]?
The T/C was 136 % of control [5 of 6 alive].

And the T/C (dose: 100.0 mg/kg/injection, schedule: Q01DX009 (ip), vehicle: suspension in saline)?
The T/C was 144 % of control.

What about the survivor count (dose: 200.0 mg/kg/injection, schedule: Q01DX009 (ip), vehicle: suspension in saline) of the same molecule?
The survivor count was 6 of 6.

What about the survivor count (dose: 400.0 mg/kg/injection, schedule: Q01DX009 (ip), vehicle: suspension in saline) of the same molecule?
The survivor count was 4 of 6.

How did the T/C (dose: 1.0 mg/kg/injection, schedule: Q01DX009 (ip), vehicle: Klucel (hydroxypropylcellulose) (HPC)) turn out when `Cc1ccc(NCCN(C)C)c2c(=O)c3cc(O)ccc3sc12` was run?
Its T/C is 130 % of control.

What about the T/C [3] of the same molecule?
Its T/C is 139 % of control.

What about the T/C (dose: 2.0 mg/kg/injection, schedule: Q01DX009 (ip), vehicle: saline with Tween-80) of the same molecule?
Its T/C is 125 % of control.

And the T/C (dose: 4.0 mg/kg/injection, schedule: Q01DX009 (ip), vehicle: Klucel (hydroxypropylcellulose) (HPC))?
Its T/C is 141 % of control.

And the T/C (dose: 4.0 mg/kg/injection, schedule: Q01DX009 (ip), vehicle: saline with Tween-80)?
The T/C was 125 % of control.

What about the T/C (dose: 8.0 mg/kg/injection, schedule: Q01DX009 (ip), vehicle: saline with Tween-80) of the same molecule?
Its T/C is 136 % of control.

And the survivor count (dose: 50.0 mg/kg/injection, schedule: Q01DX009 (ip), vehicle: Klucel (hydroxypropylcellulose) (HPC))?
Its survivor count is 5 of 5.

What about the survivor count (dose: 64.0 mg/kg/injection, schedule: Q01DX009 (ip), vehicle: saline with Tween-80) of the same molecule?
Its survivor count is 5 of 6.

And the survivor count (dose: 75.0 mg/kg/injection, schedule: Q01DX009 (ip), vehicle: Klucel (hydroxypropylcellulose) (HPC))?
The survivor count was 5 of 5.

And the survivor count (dose: 128.0 mg/kg/injection, schedule: Q01DX009 (ip), vehicle: Klucel (hydroxypropylcellulose) (HPC))?
The survivor count was 5 of 6.

What about the survivor count (dose: 128.0 mg/kg/injection, schedule: Q01DX009 (ip), vehicle: saline with Tween-80) of the same molecule?
Its survivor count is 6 of 6.

And the survivor count (dose: 200.0 mg/kg/injection, schedule: Q01DX009 (ip), vehicle: Klucel (hydroxypropylcellulose) (HPC))?
Its survivor count is 5 of 6.
